Results are given in words; binding and its absence hold for the method and conditions named. Some entries that bind do so weakly or less than the wild type.
What was measured:
recombinant human IL-23 = molecular target: T1, recombinant human IL-23 (human, UniProt Q9NPF7 20-189; P29460 23-328); test: IL-23-IL-23R neutralisation ELISA (sheet title 'IL-23 IL23R ELISA'); trypsin-cleaved construct blocks binding of IL-23 to IL-23R; A450
T1 construct: Heterodimer of p19 and p40; also called hIL-23; interleukin-23; not shown: single C-terminal 6xHis tag
T1 sequence 1: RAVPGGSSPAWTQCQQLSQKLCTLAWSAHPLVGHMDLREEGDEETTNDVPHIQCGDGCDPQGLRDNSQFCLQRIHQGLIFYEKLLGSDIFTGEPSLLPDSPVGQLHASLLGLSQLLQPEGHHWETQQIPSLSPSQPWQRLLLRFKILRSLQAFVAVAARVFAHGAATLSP
T1 sequence 2: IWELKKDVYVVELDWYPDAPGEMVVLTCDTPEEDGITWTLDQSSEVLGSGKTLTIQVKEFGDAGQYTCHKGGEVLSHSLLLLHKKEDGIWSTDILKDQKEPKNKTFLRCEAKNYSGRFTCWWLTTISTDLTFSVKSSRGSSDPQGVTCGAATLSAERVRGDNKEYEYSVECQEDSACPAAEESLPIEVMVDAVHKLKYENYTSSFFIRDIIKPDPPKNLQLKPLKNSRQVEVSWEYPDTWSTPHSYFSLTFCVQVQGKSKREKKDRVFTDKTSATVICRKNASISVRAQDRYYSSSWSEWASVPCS

By UniProt entry, the sequences of proteins in these tests, tags left out. Residues count along the entry.
UniProt P01375, residues 77-233: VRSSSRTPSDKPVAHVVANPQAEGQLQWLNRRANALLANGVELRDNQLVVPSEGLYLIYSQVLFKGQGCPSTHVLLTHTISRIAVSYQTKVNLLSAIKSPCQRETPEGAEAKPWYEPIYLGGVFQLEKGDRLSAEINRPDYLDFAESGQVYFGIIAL

human TNFα [1] = molecular target: T2, human TNFα (human, UniProt P01375 77-233); test: competition ELISA on coated human TNFα; competitor 2 nM biotinylated adalimumab
T2 construct: also called TNF-alpha

human TNFα [2] = molecular target: T2, human TNFα; test: competition ELISA on plate-coated human TNFα; competitor 2 nM biotinylated adalimumab, detected with ExtrAvidin-HRP, A450
Method: ELISA plates were coated with 100 ng/mL human TNFα in 250 μg/mL bovine serum albumin (BSA) in phosphate buffered saline (1×PBS) and blocked with 1% BSA in 1× PBS. […] Otherwise 1% BSA was used as an assay diluent.

Measured: binding

B1: FA1K trypsin (protein, not shown: small tags and cut ends)
VHH 1: DVQLVESGGGLVQPGGSLKLSCAASGFDFSSHWMYWVRQAPGKELEWLSEINTNGLITHYGDSVKGRFTVSRNNAANKMYLELTRLEPEDTALYYCARNQHGLNKGQGTQVTVSS
VHH 2: EVQLVESGGGQVQPGGSLSLSCESSVSIWSFKVMGWFRQVPGKQRELVATITTGGSPDYSDSVKGRFTISRDYDKRTLYLQMNSLKPEDTAVYYCAGRLWAHITSSGHDVWGQGTQVTVSS
binds: all assays above
